From patent US9493460B2, “Diimide compounds” (UCL BUSINESS PLC, priority 2013, dated 2016)
Some entries share one result that the patent states for a list of compounds.

System: Mia-PaCa2 cells
Test: Senescence β-galactosidase staining
Type: cell-based, human
Settings: 3-4 nM, 7 days treatment
Procedure: FIG. 4. Micrographs showing the results of staining for evidence of cellular senescence in MiaPaCa2 cells using the β-galactosidase assay. Senescent cells are coloured blue in this procedure. Staining was performed after seven days treatments with (a) vehicle control, ×100 magnification, (b) 3.3 nM of compound 3d, ×200 magnification, (c) 6.6 nM of compound 3d, ×200 magnification, (d) 50 nM of compound 4, ×200 magnification, (e) plot of the percentage of senescent cells at the indicated concentrations of compounds 3d and 4, compared to the background senescence in this cell line (with vehicle control only). Cell counts were performed in triplicate and error bars represent estimated standard deviations.
Senescence detection and quantification experiments were carried out using the Senescence β-galactosidase staining kit (Cell Signalling Technology, MA, USA) according to the manufacturer's protocol. Briefly, 1×10^5 cells were seeded in 6-well plates in 2 ml of medium supplemented with the test compound and incubated for 24 h. Cells were washed (2 ml PBS), fixed (2% formaldehyde and 2% glutaraldehyde in PBS, 15 min, room temperature) and washed (2×2 ml PBS) before staining overnight. Senescent cells, detected by their blue pigmentation, were counted using a light microscope. […]

| Compound | cells becoming senescent |
| --- | --- |
| CN1CCN(CCCNc2cc3c4c(c(NCCCN5CCN(C)CC5)cc5c4c2C(=O)N(Cc2ccco2)C5=O)C(=O)N(Cc2ccco2)C3=O)CC1 [Compound 3b, 2,7-bis(furan-2-ylmethyl)-4,9-bis((3-(4-methylpiperazin-1-yl)propyl)amino)benzo[lmn][3,8]phenanthroline-1,3,6,8(2H,7H)-tetraone] | 50-60% |
| CN1CCN(CCCNc2cc3c4c(c(NCCCN5CCN(C)CC5)cc5c4c2C(=O)N(CCCN2CCOCC2)C5=O)C(=O)N(CCCN2CCOCC2)C3=O)CC1 [Compound 3d, 4,9-bis((3-(4-methylpiperazin-1-yl)propyl)amino)-2,7-bis(3-morpholinopropyl)benzo[lmn][3,8]phenanthroline-1,3,6,8(2H,7H)-tetraone] | 50-60% |
